The text below walks through data of the supplement of paper PMC6411743.

By UniProt entry, the sequences of proteins in these tests, tags left out. Where a name states a change or a piece, a line headed by the entry shows the natural chain unless it says otherwise.
UniProt A2RU67: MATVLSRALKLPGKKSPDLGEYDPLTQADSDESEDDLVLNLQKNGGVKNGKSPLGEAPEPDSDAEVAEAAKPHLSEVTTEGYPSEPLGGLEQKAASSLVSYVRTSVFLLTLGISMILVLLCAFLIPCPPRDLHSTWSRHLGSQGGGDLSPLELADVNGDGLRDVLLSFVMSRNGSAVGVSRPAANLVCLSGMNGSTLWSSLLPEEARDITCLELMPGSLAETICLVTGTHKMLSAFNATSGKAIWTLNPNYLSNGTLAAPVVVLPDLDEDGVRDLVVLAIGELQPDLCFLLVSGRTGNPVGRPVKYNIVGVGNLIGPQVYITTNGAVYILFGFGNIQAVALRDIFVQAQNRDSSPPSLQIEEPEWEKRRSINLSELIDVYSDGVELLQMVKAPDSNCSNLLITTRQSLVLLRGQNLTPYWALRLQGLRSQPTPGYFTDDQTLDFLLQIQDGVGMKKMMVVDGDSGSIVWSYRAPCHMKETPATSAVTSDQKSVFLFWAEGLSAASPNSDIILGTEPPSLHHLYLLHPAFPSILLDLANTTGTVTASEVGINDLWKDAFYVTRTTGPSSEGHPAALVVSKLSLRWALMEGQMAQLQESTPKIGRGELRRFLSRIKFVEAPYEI
UniProt O43314: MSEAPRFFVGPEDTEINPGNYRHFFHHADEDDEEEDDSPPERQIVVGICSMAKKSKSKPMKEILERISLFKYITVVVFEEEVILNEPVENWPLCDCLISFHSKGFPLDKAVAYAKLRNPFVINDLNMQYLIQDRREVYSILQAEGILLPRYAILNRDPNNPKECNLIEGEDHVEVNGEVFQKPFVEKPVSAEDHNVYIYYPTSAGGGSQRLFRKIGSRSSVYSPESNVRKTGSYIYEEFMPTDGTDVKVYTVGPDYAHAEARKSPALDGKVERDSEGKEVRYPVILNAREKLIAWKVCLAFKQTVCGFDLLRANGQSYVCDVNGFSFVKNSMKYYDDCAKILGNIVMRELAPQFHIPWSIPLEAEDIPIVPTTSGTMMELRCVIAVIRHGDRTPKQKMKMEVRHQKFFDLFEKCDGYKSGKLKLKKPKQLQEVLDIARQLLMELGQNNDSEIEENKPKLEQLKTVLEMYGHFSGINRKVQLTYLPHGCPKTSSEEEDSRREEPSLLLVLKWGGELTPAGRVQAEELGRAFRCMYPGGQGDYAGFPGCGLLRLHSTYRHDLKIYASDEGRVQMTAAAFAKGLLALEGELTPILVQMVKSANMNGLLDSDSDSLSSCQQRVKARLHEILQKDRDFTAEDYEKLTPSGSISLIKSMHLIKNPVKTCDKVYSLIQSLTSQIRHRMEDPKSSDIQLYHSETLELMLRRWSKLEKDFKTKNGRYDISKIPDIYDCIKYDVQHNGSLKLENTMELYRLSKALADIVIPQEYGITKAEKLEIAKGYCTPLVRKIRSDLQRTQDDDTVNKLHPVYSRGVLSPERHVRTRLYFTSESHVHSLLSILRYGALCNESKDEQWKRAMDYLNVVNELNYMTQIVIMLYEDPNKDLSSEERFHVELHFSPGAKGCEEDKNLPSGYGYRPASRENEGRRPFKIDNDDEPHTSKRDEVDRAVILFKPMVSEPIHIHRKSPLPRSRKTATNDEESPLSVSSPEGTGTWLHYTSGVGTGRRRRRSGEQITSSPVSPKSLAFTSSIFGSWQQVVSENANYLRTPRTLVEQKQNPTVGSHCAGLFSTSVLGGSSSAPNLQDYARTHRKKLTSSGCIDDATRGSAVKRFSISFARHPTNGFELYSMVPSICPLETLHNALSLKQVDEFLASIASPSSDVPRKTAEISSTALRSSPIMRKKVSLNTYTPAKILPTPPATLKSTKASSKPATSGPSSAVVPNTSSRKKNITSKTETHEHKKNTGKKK
UniProt Q9Y4E1, whole entry: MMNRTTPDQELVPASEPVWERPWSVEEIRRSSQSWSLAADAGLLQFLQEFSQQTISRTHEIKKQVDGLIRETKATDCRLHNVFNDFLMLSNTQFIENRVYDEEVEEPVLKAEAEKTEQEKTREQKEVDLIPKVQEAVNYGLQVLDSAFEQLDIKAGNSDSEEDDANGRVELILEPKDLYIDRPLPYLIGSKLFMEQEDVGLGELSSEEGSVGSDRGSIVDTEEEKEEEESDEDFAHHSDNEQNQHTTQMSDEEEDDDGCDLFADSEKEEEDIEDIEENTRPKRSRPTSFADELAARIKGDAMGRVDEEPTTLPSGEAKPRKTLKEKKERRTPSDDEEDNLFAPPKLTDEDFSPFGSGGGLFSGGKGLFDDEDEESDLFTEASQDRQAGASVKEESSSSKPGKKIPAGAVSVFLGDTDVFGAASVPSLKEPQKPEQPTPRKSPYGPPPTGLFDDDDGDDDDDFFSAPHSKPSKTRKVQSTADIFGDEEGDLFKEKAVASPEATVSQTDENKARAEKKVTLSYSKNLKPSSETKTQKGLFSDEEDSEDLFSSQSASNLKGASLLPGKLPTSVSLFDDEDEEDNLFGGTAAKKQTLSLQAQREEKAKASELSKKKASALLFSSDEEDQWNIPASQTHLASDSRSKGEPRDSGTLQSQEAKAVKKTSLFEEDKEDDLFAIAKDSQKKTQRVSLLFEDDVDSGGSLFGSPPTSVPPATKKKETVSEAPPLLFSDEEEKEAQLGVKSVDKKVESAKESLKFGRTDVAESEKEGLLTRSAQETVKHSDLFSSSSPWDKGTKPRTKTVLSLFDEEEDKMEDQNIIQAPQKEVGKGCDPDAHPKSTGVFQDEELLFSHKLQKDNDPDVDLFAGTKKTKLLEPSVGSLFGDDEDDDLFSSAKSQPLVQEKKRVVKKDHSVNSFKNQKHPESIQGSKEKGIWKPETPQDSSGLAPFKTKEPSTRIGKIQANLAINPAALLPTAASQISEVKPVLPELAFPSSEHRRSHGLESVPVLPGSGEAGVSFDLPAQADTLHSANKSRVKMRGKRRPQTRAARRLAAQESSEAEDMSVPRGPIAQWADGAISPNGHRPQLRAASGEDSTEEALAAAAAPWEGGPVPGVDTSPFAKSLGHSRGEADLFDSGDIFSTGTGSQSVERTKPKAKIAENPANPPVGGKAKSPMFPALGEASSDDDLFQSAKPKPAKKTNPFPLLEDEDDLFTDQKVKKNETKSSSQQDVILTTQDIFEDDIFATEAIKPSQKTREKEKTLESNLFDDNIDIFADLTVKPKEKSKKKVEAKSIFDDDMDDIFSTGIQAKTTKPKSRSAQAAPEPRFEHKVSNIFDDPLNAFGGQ
UniProt Q5ST30: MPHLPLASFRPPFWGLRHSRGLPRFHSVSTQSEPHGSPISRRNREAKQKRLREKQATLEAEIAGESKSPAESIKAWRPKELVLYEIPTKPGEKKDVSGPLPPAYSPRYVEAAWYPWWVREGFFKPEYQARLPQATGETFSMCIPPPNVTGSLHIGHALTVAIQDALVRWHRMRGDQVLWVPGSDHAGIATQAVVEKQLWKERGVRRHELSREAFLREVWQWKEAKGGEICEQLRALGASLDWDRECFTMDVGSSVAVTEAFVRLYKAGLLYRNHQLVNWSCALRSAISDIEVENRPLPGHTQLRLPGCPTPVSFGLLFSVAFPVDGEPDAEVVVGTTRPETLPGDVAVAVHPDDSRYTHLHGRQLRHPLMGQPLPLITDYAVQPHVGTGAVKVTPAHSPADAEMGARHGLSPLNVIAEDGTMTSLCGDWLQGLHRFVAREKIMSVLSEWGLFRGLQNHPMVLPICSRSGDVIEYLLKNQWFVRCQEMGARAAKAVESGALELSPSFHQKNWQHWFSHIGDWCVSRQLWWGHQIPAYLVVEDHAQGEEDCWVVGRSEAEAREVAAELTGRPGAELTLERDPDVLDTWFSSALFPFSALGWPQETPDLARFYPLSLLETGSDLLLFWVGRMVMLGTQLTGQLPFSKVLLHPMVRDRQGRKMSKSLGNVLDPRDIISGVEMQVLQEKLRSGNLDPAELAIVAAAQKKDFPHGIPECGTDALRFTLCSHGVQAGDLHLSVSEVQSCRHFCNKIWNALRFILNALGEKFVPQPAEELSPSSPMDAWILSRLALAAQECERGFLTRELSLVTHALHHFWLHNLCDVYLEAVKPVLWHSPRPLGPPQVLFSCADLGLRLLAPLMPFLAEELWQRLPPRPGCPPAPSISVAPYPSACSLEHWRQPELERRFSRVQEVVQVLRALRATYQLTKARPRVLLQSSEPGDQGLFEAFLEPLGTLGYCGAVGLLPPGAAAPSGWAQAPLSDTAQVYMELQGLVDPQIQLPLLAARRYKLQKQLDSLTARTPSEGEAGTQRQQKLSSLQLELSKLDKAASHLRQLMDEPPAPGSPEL
UniProt P01850: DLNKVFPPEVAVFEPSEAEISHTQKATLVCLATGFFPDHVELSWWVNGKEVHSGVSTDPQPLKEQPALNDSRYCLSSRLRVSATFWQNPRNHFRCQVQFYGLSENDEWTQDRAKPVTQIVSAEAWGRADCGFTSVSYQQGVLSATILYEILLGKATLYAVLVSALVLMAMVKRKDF

± gives the standard deviation of the averaged measurements. The list shows a part of the results.

Compound in the test: Nc1nc2c(ncn2[C@@H]2O[C@H](COP(=O)(O)OP(=O)(O)OP(=O)(O)O)[C@@H](O)[C@H]2O)c(=O)[nH]1 [guanosine triphosphate]
Put plainly: NP40-soluble protein abundance relative to vehicle (solubility fold change) (ratio); higher = more soluble protein in presence of GTP. On the procedure:
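Solubility proteome profiling in Jurkat crude lysate. Lysate was treated with Mg-GTP (0.1-10 mM) for 10 min at room temperature and 3 min at 37 °C, then solubilised with 0.8% NP40 and benzonase, followed by ultracentrifugation. Proteins were quantified by TMT10 LC-MS/MS; the value is the NP40-soluble abundance relative to the NP40-processed vehicle, from 3 independent experiments.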

Regarding UniProt A2RU67, the NP40-soluble protein abundance runs as follows: (concentration: 0.1mM) 0.932 ± 0.039; (concentration: 0.5mM) 0.838 ± 0.034; (concentration: 1mM) 0.926 ± 0.079; (concentration: 2mM) 0.787 ± 0.2; (concentration: 4mM) 0.823 ± 0.043; (concentration: 6mM) 0.772 ± 0.083. Further, the NP40-soluble protein abundance worked out at 0.9553 ± 0.0041 (concentration: 8mM) and 0.816 ± 0.2 (concentration: 10mM).

As for “A0A087WZV0|H0Y9S9 and related entries (UniProt O43314)”, the NP40-soluble protein abundance is, setting by setting: (concentration: 0.1mM) 1 ± 0.011; (concentration: 0.5mM) 1.04 ± 0.023; (concentration: 1mM) 0.959 ± 0.021; (concentration: 2mM) 0.937 ± 0.018; (concentration: 4mM) 0.931 ± 0.0053; (concentration: 6mM) 0.93 ± 0.024. Besides, the NP40-soluble protein abundance reads like this: (concentration: 8mM) 0.928 ± 0.047; (concentration: 10mM) 0.935 ± 0.035.

On to “A0A096LPC5|Q9Y4E1 and related entries (UniProt Q9Y4E1)”, for which the NP40-soluble protein abundance is, setting by setting: (concentration: 0.1mM) 0.947 ± 0.018; (concentration: 0.5mM) 1.04 ± 0.057; (concentration: 1mM) 1.073 ± 0.0097; (concentration: 2mM) 1.02 ± 0.041; (concentration: 4mM) 0.941 ± 0.017; (concentration: 6mM) 0.9589 ± 0.0072. The NP40-soluble protein abundance amounted to 1.06 ± 0.04 (concentration: 8mM) and 1.04 ± 0.041 (concentration: 10mM).

Take “A0A0G2JIA5|A0A140TA36|A0A140TA45|Q5ST30-4 (UniProt Q5ST30)”: the NP40-soluble protein abundance runs as follows: (concentration: 0.1mM) 1.03 ± 0.06; (concentration: 0.5mM) 1.01 ± 0.046; (concentration: 1mM) 0.992 ± 0.05; (concentration: 2mM) 0.97 ± 0.027; (concentration: 4mM) 0.977 ± 0.025; (concentration: 6mM) 0.947 ± 0.045. Further, the NP40-soluble protein abundance runs as follows: (concentration: 8mM) 0.97 ± 0.064; (concentration: 10mM) 0.962 ± 0.039.

On to A0A087WZV8|A0A0G2JN66 (UniProt P01850), for which the NP40-soluble protein abundance was determined as 1.02 ± 0.032 (concentration: 0.1mM); 1.04 ± 0.034 (concentration: 0.5mM); 1.002 ± 0.0081 (concentration: 1mM); 1.01 ± 0.042 (concentration: 2mM); 1.01 ± 0.036 (concentration: 4mM); 0.98 ± 0.023 (concentration: 6mM). Further, the NP40-soluble protein abundance runs as follows: (concentration: 8mM) 0.977 ± 0.04; (concentration: 10mM) 0.976 ± 0.046.
